The test has as its system skin of the subjects left forearm.

`CCN(CC)CC(=O)Nc1c(C)cccc1C` [lidocaine]: the “numbness scale (10 = no numbness, 0 = complete numbness)” value (Site 1 control, no poration, no sonic energy, at approximately 20 minutes) amounted to 3. The “diameter of totally numb circle” value (Site 2 porated plus ultrasound, after the second 5 minute application) is given as “about 1.2 cm”. The “diameter of circle outside which no numbness” value (Site 2 porated plus ultrasound, first 5 minute application) was found to be 2.5 cm.

The values above are taken from patent US9579380B2, “Microporation of tissue for delivery of bioactive agents” (priority 1996, dated 2017).
